The list shows a part of the results. The main result of the screen is listed elsewhere. These columns were measured beside it and carry no call. Most of these compounds were active or inconclusive in the main read-out, so they are no random draw. The note in brackets gives the kind of curve behind each potency; many fits are weak.

The assay can be described thus: IkB Signaling. The note with it: ABC-DLBCL IkBa-CBG/CBR dual luciferase ratio (green luciferase fused to IkBa over red control in OCI-Ly3 lymphoma cells), 4 h; measured here: control luc red channel unless noted. The essentials: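 In this assay, an IκBα–CBG68 fusion accumulates when IKK-driven degradation is blocked; native CBR normalizes for cell number. OCI-Ly3 cells were treated 4 h with compound and doxycycline, then green and red light read after Chroma-Glo addition.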
`CCCCC(c1nnnn1Cc1ccco1)N1CCN(c2nc3ccccc3s2)CC1` (configuration not stated): the AC50 is 12.6 µM [falling, partial curve].
`CCCCC(CC)CNC(=O)c1ccc2c(=O)n(CCOC)c(=O)[nH]c2c1` (configuration not stated): the AC50 is 2 µM [falling, full curve].
On to `COc1ccc(NC(=O)C2CCN(c3cc(C)nc(-c4ccccc4)n3)CC2)cc1`, for which the AC50 was 12.6 µM [falling, partial curve].
Under `CC(=O)c1cccc(S(=O)(=O)N2CCN(c3ccccc3F)CC2)c1` stands 15.8 µM [falling, single point]; under `O=C(COc1cccc2cccnc12)Nc1nccs1`, 3.16 µM [falling, full curve].
Regarding `Cc1ccc(CN2CCC(CNC(=O)c3cc4ccc5cccnc5c4[nH]3)CC2)cc1`, the AC50 is 20 µM [falling, single point].
Turning to `CCOc1cc2sc(N3CCC(C(=O)Nc4ccccc4Cl)CC3)nc2cc1Br`, the AC50 is 2 µM [falling, full curve].
Turning to `Cc1ccc(-c2nn(CC(=O)NC3CCCC3)c3c2cnc2ccc(F)cc23)cc1C`, the AC50 is 2 µM [rising, full curve, poor fit].
As to `Cc1cc(S(=O)(=O)C(CNC(=O)COc2ccccc2)c2cccs2)ccc1F` (configuration not stated), the AC50 was 39.8 µM [falling, single point].
Regarding `CCN(CC)C(=O)COc1ccc(-c2nnc(N3CCCCC3)c3ccccc23)cc1`, the AC50 is 15.8 µM [falling, partial curve].
Under `COc1ccccc1Cn1cc(C(=O)c2ccc(Cl)cc2)c(=O)c2cc3c(cc21)OCCO3` stands 10 µM [falling, partial curve].
Under `CCCCOC(=O)c1ccc(NC(=O)c2ccc3c(c2)CCN3S(=O)(=O)c2ccccc2)cc1` stands 3.98 µM [rising, single point]; under `O=C(Nc1ccc(F)cc1F)c1ccc(-c2ccccc2)s1`, 0.126 µM [falling, full curve]; under `Cc1ccc2nc(CSc3nnc(NC(=O)COc4ccccc4F)s3)cc(=O)n2c1`, 25.1 µM [falling, partial curve, poor fit].
In the case of `COc1ccc(C)cc1N(CC(=O)N1CCC(C)CC1)S(=O)(=O)c1ccc(C)cc1`, the AC50 was 25.1 µM [falling, single point].
For `Cn1c(=O)c2c(-c3ccccc3Br)n(C(C)(C)C)cc2n(C)c1=O`, the AC50 was 31.6 µM [falling, single point].
The figure for `O=C(NC1CCCCC1)c1cc(-c2ccco2)on1` is 0.631 µM [falling, full curve].
Regarding `COc1ccc(-n2c(CCC(=O)O)ccc2-c2ccccc2)cc1`, the AC50 was 5.01 µM [falling, partial curve].
`CCC(=O)N1CCc2cc(Br)cc(S(=O)(=O)N3CCCC(C(=O)Nc4ccc(CC)cc4)C3)c21` (configuration not stated): the AC50 is 6.31 µM [falling, full curve, poor fit].
The figure for `CCOC(=O)c1cccc(NC(=O)Cc2ccc(NC(=O)N3CCCCc4ccccc43)cc2)c1` is 15.8 µM [falling, single point].
The figure for `COc1ccc(NS(=O)(=O)c2ccc(SC)cc2)cc1` is 12.6 µM [falling, partial curve]; for `CCOC(=O)c1c(C)[nH]c(C)c1S(=O)(=O)N1CCCC(C(=O)N2CCN(c3ccc(Cl)cc3)CC2)C1` (configuration not stated) it is 25.1 µM [falling, single point]; for `O=C(Nc1ccccc1C(=O)OCc1cc(=O)n2c3c(sc2n1)CCCC3)c1ccc(Cl)cc1` it is 3.98 µM [falling, partial curve].
For the compound `Cc1nnc(N2CCN(c3ccccc3)CC2)c2c1nnn2Cc1ccc(F)cc1`, the AC50 is 3.98 µM [falling, partial curve].
Under `CCOC(=O)c1[nH]c(C)c(CCC(=O)N2CCN(c3cc(Cl)ccc3C)CC2)c1C` stands 31.6 µM [falling, single point].
Under `Cc1cc2c(cc1S(=O)(=O)CCC(=O)NCc1ccccc1)OCC(=O)N2` stands 10 µM [falling, partial curve]; under `CCN(CC)c1ccc(NC(=O)C(NS(=O)(=O)c2cccs2)C(C)C)c(C)c1` (configuration not stated), 31.6 µM [falling, single point].
Under `CCn1nc(-c2ccccc2)c(-c2ccccc2)c(C(=O)Nc2ccccc2C(N)=O)c1=O` stands 31.6 µM [falling, single point]; under `Cc1cc(C)cc(NC(=O)CSCc2cc(=O)c3cc(Cl)ccc3[nH]2)c1`, 31.6 µM [falling, single point]; under `CC1(C)CC(=O)c2cc(-c3nc(-c4ccc(Br)cc4)cs3)c(=O)n(-c3ccccc3)c2C1`, 6.31 µM [falling, single point].
On to `O=C(c1cnc(N2CCOCC2)c2ccccc12)N1CCN(c2ccc(F)cc2)CC1`, for which the AC50 was 2.51 µM [rising, partial curve].
As to `O=C(CN1CCN(c2ncc(C(F)(F)F)cc2Cl)CC1)Nc1ccc2c(c1)OCO2`, the AC50 was 25.1 µM [falling, partial curve].
Under `O=C1c2ccccc2-c2onc3c(Br)cc(NC4CCCCC4)c1c23` stands 39.8 µM [falling, single point]; under `Cc1cccc(N2C(=O)CSC23C(=O)N(CC(=O)NCCc2ccccc2)c2ccccc23)c1` (configuration not stated), 20 µM [falling, single point]; under `Nc1nc(CN2CCN(c3ccc(F)cc3)CC2)nc(N2CCCc3ccccc32)n1`, 12.6 µM [falling, partial curve].
On to `COc1cc2nc(NCc3ccccc3Cl)n3nc(-c4cccnc4)nc3c2cc1OC`, for which the AC50 was 10 µM [falling, single point].
The figure for `COc1ccc(CC(=O)N2CC(=O)Nc3ccc(Br)cc3C2c2ccc(F)cc2)cc1OC` (configuration not stated) is 39.8 µM [falling, single point]; for `CC(NC(=O)C1CCN(c2nnc(-n3cccc3)s2)CC1)C12CC3CC(CC(C3)C1)C2` (configuration not stated) it is 20 µM [falling, partial curve]; for `COc1ccc(Cn2c(C(=O)O)c(CNC3CCC(C)CC3)c3ccc(C)cc32)cc1` (configuration not stated) it is 39.8 µM [falling, single point].
On to `COc1cccc(CNC(=O)c2cc(-c3cccs3)nc3ccccc23)c1`, for which the AC50 is 7.94 µM [falling, partial curve].
As for `Cn1nc(-c2ccccc2)c(-c2ccccc2)c(C(=O)Nc2ccc(S(N)(=O)=O)cc2)c1=O`, the AC50 is 0.251 µM [rising, full curve, poor fit].
As to `Oc1c(Cl)cc(Cl)c(Cl)c1Cl`, the AC50 is 31.6 µM [falling, partial curve].
Under `Cc1cccc(-n2c(SCC(=O)Nc3ccccc3Cl)nc3n[nH]c(C)c3c2=N)c1` stands 39.8 µM [falling, single point]; under `COc1cccc(Nc2cc(-c3ccccc3)nc(C)n2)c1`, 31.6 µM [falling, single point].
Under `CCN(CC)S(=O)(=O)c1ccc(C(=O)NCc2n[nH]c(=S)n2-c2ccccc2OC)cc1` stands 0.2 µM [falling, full curve].
`COc1ccc(C)c2sc(N(Cc3cccnc3)C(=O)COc3ccccc3)nc12`: the AC50 was 0.01 µM [rising, full curve, poor fit].
Under `CC(C)C1C(C#N)=C(N)Oc2n[nH]c(-c3cccs3)c21` (configuration not stated) stands 31.6 µM [falling, partial curve]; under `Cc1ccc2c(c1)N(C(=O)N1CCC(C(=O)NC3CCCCCC3)CC1)CCO2`, 0.0794 µM [falling, full curve]; under `CN(C)c1ccc(-c2nc(-c3ccncc3)no2)cc1[N+](=O)[O-]`, 10 µM [falling, partial curve].
The figure for `O=C1c2ccccc2C(=O)N1CCCSc1nc2ccccc2o1` is 25.1 µM [falling, single point]; for `CCc1nc2oc3cc(OC)ccc3c(=O)c2c(=O)n1-c1ccccc1` it is 0.0316 µM [falling, full curve].
The figure for `CCC1CCCCN1CCCNC(=O)c1cc2c(Cl)nc3ccc(C)cc3c2s1` (configuration not stated) is 39.8 µM [rising, single point]; for `Cc1c2cnn(CC(=O)NCCc3ccccc3)c(=O)c2c(C)n1Cc1ccccc1Cl` it is 25.1 µM [falling, partial curve].
With `CCC1CCCCN1CCCNC(=O)c1ccc2c(c1)N(Cc1cccc(C)c1)C(=O)c1ccccc1S2(=O)=O` (configuration not stated), the AC50 is 31.6 µM [falling, single point].
Under `Cc1[nH]n2c(=O)c(C#N)c(-c3ccccc3)nc2c1-c1ccccc1` stands 0.398 µM [falling, full curve]; under `COc1cc(C(=O)NCC(c2ccc(N(C)C)cc2)N2CCCC2)cc(OC)c1OC` (configuration not stated), 25.1 µM [falling, partial curve, poor fit].
The figure for `CCOc1ccc(NC(=O)CSc2nc3nc(C)c(Cc4ccccc4)c(C)n3n2)cc1` is 39.8 µM [falling, partial curve].
The figure for `CCc1ccc(NC(=O)CSc2nc(=O)n(Cc3cccnc3)c3c2CCC3)cc1` is 25.1 µM [falling, single point].
Turning to `CCc1ccccc1NC(=O)CSc1nc2c(oc3ccccc32)c(=O)n1-c1ccccc1`, the concentration at half-maximal activity (AC50) was 15.8 µM [falling, partial curve].
On to `CCN(CC)CCNC(=O)CCCCn1c(=S)[nH]c2c([nH]c3ccc(OC)cc32)c1=O`, for which the AC50 is 12.6 µM [falling, partial curve].
Under `CCn1c2ccccc2c2nc3cc(S(=O)(=O)N4CCOCC4)ccc3nc21` stands 31.6 µM [rising, single point] [measured here: IkB-luc green channel].
For the compound `O=C(Nc1ncccc1O)c1cccc(S(=O)(=O)N2CCc3ccccc32)c1`, the AC50 was 31.6 µM [rising, single point] [measured here: IkB-luc green channel].
